Measured values: the supplement of paper PMC6414424
± gives the standard deviation of the averaged measurements. The list shows a part of the results.

The compounds below were run on APPdp1-6 iPSC-derived neurons (assay: pThr231Tau/total Tau ratio Z-score vs DMSO vehicle wells; higher = more pThr231Tau relative to total Tau). Settings: 5 µM; treatment time 5 days.

Compound | pThr231Tau/total Tau ratio Z-score
COc1cc(C(=O)N2CCOCC2)cc(OC)c1OC | 1.13 ± 0.027
CC(=O)OCC(=O)[C@@]1(O)CC[C@H]2[C@@H]3CCC4=CC(=O)CC[C@]4(C)[C@H]3C(=O)C[C@@]21C [CORTISONE ACETATE    Therap cat:  Glucocorticoid] | 1.26 ± 1.3
CCC(=O)O[C@H]1[C@H](O[C@@H]2[C@@H](C)[C@H](O[C@H]3C[C@@](C)(OC)[C@@H](O)[C@H](C)O3)[C@@H](C)C(=O)O[C@H](CC)[C@@](C)(O)[C@H](O)[C@@H](C)C(=O)[C@H](C)C[C@@]2(C)O)O[C@H](C)C[C@@H]1N(C)C | -1.35 ± 1.3
CC(=O)Oc1cc(C(C)C)c(OCCN(C)C)cc1C [Prestw-42] | -0.469 ± 1.1
O=C(O)c1cc(O)c2c(c1)[C@H]([C@H]1c3cc(C(=O)O)cc(O)c3C(=O)c3c(O[C@@H]4O[C@H](CO)[C@@H](O)[C@H](O)[C@H]4O)cccc31)c1cccc(O[C@@H]3O[C@H](CO)[C@@H](O)[C@H](O)[C@H]3O)c1C2=O | 0.24 ± 1.7
CC(c1cc2ccccc2s1)N(O)C(N)=O (stereo unspecified) [Prestw-1365] | -0.238 ± 0.52
COc1cc(C)c(/C=C/C(C)=C/C=C/C(C)=C/C(=O)O)c(C)c1C [Prestw-1165] | 0.576 ± 0.8
CN(C)CCc1c[nH]c2ccc(C[C@H]3COC(=O)N3)cc12 [ZOLMITRIPTAN, antimigraine, 5HT[1B/1D] agonist] | -0.284 ± 0.57
CN(C)CCC=C1c2ccccc2C=Cc2ccccc21 [Prestw-445] | -1.02 ± 0.48
C[N+]1(C)CCC(=C(c2ccccc2)c2ccccc2)CC1 [Prestw-79] | 2.02 ± 3
NS(=O)(=O)c1cc2c(cc1Cl)NCNS2(=O)=O [Prestw-9] | -0.536 ± 0.62
Nc1ccc(C(=O)Oc2ccccc2)c(O)c1 [FENAMISAL    Therap cat: tuberculostatic] | 0.418 ± 2.2
CNNCc1ccc(C(=O)NC(C)C)cc1 [Prestw-1112] | 0.225 ± 0.31
O=c1[nH]c(=O)n([C@H]2C[C@H](O)[C@@H](CO)O2)cc1F [Prestw-1415] | -1.52 ± 0.94
CCn1cc(C(=O)O)c(=O)c2cc(F)c(N3CCNC(C)C3)c(F)c21 (stereo unspecified) [Prestw-238] | -0.52 ± 1.6
CS(=O)(=O)Nc1ccc([N+](=O)[O-])cc1Oc1ccccc1 [Prestw-194] | -0.362 ± 0.17
COc1cc(C)nc(-n2nc(C)cc2OC)n1 [Prestw-32] | 0.241 ± 1.4
CNC(=C[N+](=O)[O-])NCCSCc1csc(CN(C)C)n1 [Prestw-921] | 0.268 ± 0.74

Fetched one by one from the entries so far, 2 records:
Compound | pThr231Tau/total Tau ratio Z-score
CCn1cc(C(=O)O)c(=O)c2cc(F)c(N3CCNC(C)C3)c(F)c21 (stereo unspecified) [Prestw-238] | -0.52 ± 1.6
C[N+]1(C)CCC(=C(c2ccccc2)c2ccccc2)CC1 [Prestw-79] | 2.02 ± 3

Later entries:

Compound | pThr231Tau/total Tau ratio Z-score
C[C@]12C=CC(=O)C=C1CC[C@@H]1[C@@H]2C(=O)C[C@@]2(C)[C@H]1CC[C@]2(O)C(=O)CO [Prestw-77] | 0.349 ± 1.1
CCOC(=O)CCC(=O)O[C@H]1[C@H](O[C@@H]2[C@@H](C)[C@H](O[C@H]3C[C@@](C)(OC)[C@@H](O)[C@H](C)O3)[C@@H](C)C(=O)O[C@H](CC)[C@@](C)(O)[C@H](O)[C@@H](C)C(=O)[C@H](C)C[C@@]2(C)O)O[C@H](C)C[C@@H]1N(C)C [ERYTHROMYCIN ETHYLSUCCINATE    Therap cat:  Antibacterial] | 0.0969 ± 1.5
Cc1ccc(S(=O)(=O)NCl)cc1 | -0.273 ± 0.004
C[C@@H]1O[C@@H]1P(=O)(O)O [FOSPHOMYCIN, Antibiotic; interferes with cell wall synthesis] | -0.792 ± 1.8
C[C@@H]1CN(c2c(F)c(N)c3c(=O)c(C(=O)O)cn(C4CC4)c3c2F)C[C@H](C)N1 [Prestw-1343] | -1.35 ± 1.1
CC[C@]12CCCN3CCc4c(n(c5ccccc45)C(=O)C1)[C@@H]32 [Prestw-607] | -1.24 ± 0.079
CCn1cc(C(=O)O)c(=O)c2cc(F)c(N3CCN(C)CC3)cc21 [Prestw-1303] | -1.11 ± 0.4
CC(=O)Nc1c(I)c(NC(C)=O)c(I)c(C(=O)O)c1I [DIATRIZOIC ACID, radiopaque agent] | 0.171 ± 0.9
CCc1cc(C(N)=S)ccn1 [Prestw-526] | 1.48 ± 0.84
Cc1ccc(C(=O)Nc2ccc(S(=O)(=O)O)c3cc(S(=O)(=O)O)cc(S(=O)(=O)O)c23)cc1NC(=O)c1cccc(NC(=O)Nc2cccc(C(=O)Nc3cc(C(=O)Nc4ccc(S(=O)(=O)O)c5cc(S(=O)(=O)O)cc(S(=O)(=O)O)c45)ccc3C)c2)c1 | 1.41 ± 0.73
CC(=O)Nc1ccc(S(=O)(=O)Nc2ccc([N+](=O)[O-])cc2)cc1 [SULFANITRAN    Therap cat: antibacterial] | 0.598 ± 0.23
CCC(=O)[C@@]1(C)[C@H](C)C[C@H]2[C@@H]3CCC4=CC(=O)C=C[C@]4(C)[C@H]3[C@@H](O)C[C@@]21C [Prestw-1020] | 0.0917 ± 0.53
O=C(N/N=C/c1ccc([N+](=O)[O-])o1)c1ccc(O)cc1 [Prestw-555] | -4.01 ± 1.4
CN1CCN(C(c2ccccc2)c2ccc(Cl)cc2)CC1 (stereo unspecified) [Prestw-706] | 0.652 ± 1.4
NC(=O)c1ncn([C@@H]2O[C@H](CO)[C@@H](O)[C@H]2O)c1O | 1.33 ± 3.2
O=C1C=CC(=O)c2c1ccc1c2ccc2ccccc21 [Prestw-615] | -1.64 ± 0.52
CC(C)(O/N=C(\C(=O)N[C@@H]1C(=O)N2C(C(=O)[O-])=C(C[n+]3ccccc3)CS[C@H]12)c1csc(N)n1)C(=O)O [Prestw-489] | -0.569 ± 1.2
Cc1ccc(/C(=C\CN2CCCC2)c2ccccn2)cc1 [Prestw-262] | -0.329 ± 0.71
